Results taken from patent US20120321619A1.
These are yes or no findings as the source states them, for the method shown. Some results given as binding are weak or reduced against the parent protein; the word gives no strength. For some assays here: Sequences can lack the tags named with a protein.

Amino acid sequences for entries named in this document (tags omitted). Residues count along the entry.
UniProt Q91YK8, residues 33-343: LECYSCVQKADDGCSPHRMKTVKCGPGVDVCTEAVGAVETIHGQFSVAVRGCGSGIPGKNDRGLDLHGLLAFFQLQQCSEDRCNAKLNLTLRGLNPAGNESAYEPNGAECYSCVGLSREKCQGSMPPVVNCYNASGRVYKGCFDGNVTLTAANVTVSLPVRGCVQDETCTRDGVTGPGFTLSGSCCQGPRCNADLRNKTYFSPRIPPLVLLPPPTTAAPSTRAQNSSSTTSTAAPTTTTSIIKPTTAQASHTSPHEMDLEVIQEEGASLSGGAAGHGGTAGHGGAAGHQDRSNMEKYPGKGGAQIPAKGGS

What was measured:
[1] = molecular target: T1, hC4.4a domain S1-Fc-his6 (human) (UniProt O95274); assay: western blot, non-reduced samples
T1 sequence (chain (part 1 of 2)): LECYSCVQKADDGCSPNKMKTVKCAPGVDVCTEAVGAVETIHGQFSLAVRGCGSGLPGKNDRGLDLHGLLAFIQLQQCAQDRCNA
T1 sequence (chain (part 2 of 2)): HHHHHH

[2] = molecular target: recombinant soluble murine C4.4a (mouse) (UniProt Q91YK8); assay: western blot, non-reduced samples

binding [1]: binds | binding [2]: binds
B1: M31-B01 (antibody, human IgG1, V domains shown)
VH: EVQLLESGGGLVQPGGSLRLSCAASGFTFSNAWMSWVRQAPGKGLEWVSYISSSGSTIYYADSVKGRFTISRDNSKNTLYLQMNSLRAEDTAVYYCAREGLWAFDYWGQGTLVTVTS
VL: QSVLTQPPSASGTPGQRVTISCTGSSSNIGAGYVVHWYQQLPGTAPKLLIYDNNKRPSGVPDRFSGSKSGTSASLAISGLRSEDEADYYCAAWDDRLNGPVFGGGTKLTVLG
